Data as given in PubChem BioAssay AID1508588 (Peter MacCallum Cancer Centre, 2020)

- Purpose: 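Knock-downs boosting vemurafenib effects on melanoma cell growth or lactate release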 (primary screen)
- Cell system: human WM266.4 melanoma cells (BRAF V600 mutant)
- Reagents: siRNA pool against human genes, 40 nM
- Time to read-out: 96 h from transfection to read-out
- Treatment: vemurafenib 300 nM (about IC25), added 48 h after transfection, for 48 h; comparison arm got DMSO vehicle only
- Read-out: 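Cell gain (DAPI nuclei at end minus before drug, mean of two replicates) and medium lactate by absorbance per cell, both as ratio to non-targeting siRNA, also grouped into fold-change classes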
- Direction: cell gain with vemurafenib: higher = more cell gain than with non-targeting siRNA; lactate per cell with vemurafenib: higher = more lactate made per cell
- Rule for the call: 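a knock-down counts as enhancing when its fold-change classes with vehicle and with vemurafenib, taken together, show a stronger drug effect on cell gain or lactate per cell; exact class pairs not stated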
- Meaning of the calls: active = enhances vemurafenib effect; inactive = no enhancement seen
Here is a random part of about 18,000 deposited reagents. 790 of all reagents (4.4%) were called active. 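Calls rest on a combination of fold-change classes in drug and vehicle arms, not all shown here.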 Entries without a mark were called inactive. Reagents against one gene are numbered here. No sequences are given here.

gene symbol	pool no.	cell gain with vemurafenib	lactate per cell with vemurafenib
PTF1A (pancreas associated transcription factor 1a)	1	0.4	1.68
IMPDH1 (inosine monophosphate dehydrogenase 1)	1	0.81	0.57
TMPRSS11A (transmembrane serine protease 11A)	1	0.76	0.77
PIP4K2C (phosphatidylinositol-5-phosphate 4-kinase type 2 gamma)	1	0.79	0.94
NLRP9 (NLR family pyrin domain containing 9)	1	0.33	1.03
CFP (complement factor properdin)	1	0.95	0.84
CLEC11A (C-type lectin domain containing 11A)	1	0.45	1.67
ARMC7 (armadillo repeat containing 7)	1	1.08	0.96
HSPA13 (heat shock protein family A (Hsp70) member 13)	1	0.39	1.8
SMAD1 (SMAD family member 1)	1	0.66	0.72
KTN1 (kinectin 1)	1	0.41	0.74
GABBR1 (gamma-aminobutyric acid type B receptor subunit 1)	1	0.76	0.56
PECR (peroxisomal trans-2-enoyl-CoA reductase)	1	0.5	1.98
TNNT2 (troponin T2, cardiac type)	1	0.19	1.06
LGALS9C (galectin 9C)	1	0.59 (active)	0.38
TTC4 (tetratricopeptide repeat domain 4)	1	0.84	0.73
RIF1 (replication timing regulatory factor 1)	1	0.73	0.77
H1-2 (H1.2 linker histone, cluster member)	1	0.36	1.23
LIPI (lipase I)	1	0.75	1.17
UCHL3 (ubiquitin C-terminal hydrolase L3)	1	0.88	0.88
TSHB (thyroid stimulating hormone subunit beta)	1	0.75	0.72
ANXA10 (annexin A10)	1	0.26	0.63
ANXA8L1 (annexin A8 like 1)	1	0.5	1.52
ANKRD10 (ankyrin repeat domain 10)	1	0.83	0.76
LY96 (lymphocyte antigen 96)	1	0.66	0.76
MIOX (myo-inositol oxygenase)	1	0.46	0.9
CLDN18 (claudin 18)	1	0.73	0.36
LRPAP1 (LDL receptor related protein associated protein 1)	1	0.89	0.58
APBB1 (amyloid beta precursor protein binding family B member 1)	1	-0.11	1.44
PLEKHO2 (pleckstrin homology domain containing O2)	1	0.51	1.03
ADRA1D (adrenoceptor alpha 1D)	1	0.33	2.4
PCNP (PEST proteolytic signal containing nuclear protein)	1	0.65 (active)	0.4
POP4 (POP4 ribonuclease P/MRP subunit)	1	0.53	0.3
LSM14A (LSM14A mRNA processing body assembly factor)	1	0.11	1.36
GPN3 (GPN-loop GTPase 3)	1	0.63	1.22
ZFAND6 (zinc finger AN1-type containing 6)	1	1	0.94
KIAA1958	1	0.59	1.97
NOTUM (notum, palmitoleoyl-protein carboxylesterase)	1	0.87	0.66
KRTAP11-1 (keratin associated protein 11-1)	1	0.56	0.66
PSMA8 (proteasome 20S subunit alpha 8)	1	0.68	0.88
SLC9A8	1	0.74	0.64
OR5D13 (olfactory receptor family 5 subfamily D member 13)	1	0.74	0.77
PER1 (period circadian regulator 1)	1	0.72	1.68
STX1B (syntaxin 1B)	1	0.69 (active)	0.47
POMGNT1	1	0.54	0.64
RAB6C (RAB6C, member RAS oncogene family)	1	0.84	0.42
OR4M1 (olfactory receptor family 4 subfamily M member 1)	1	0.7	0.64
MAP4K1 (mitogen-activated protein kinase kinase kinase kinase 1)	1	-0.04	1.94
SCP2D1 (SCP2 sterol binding domain containing 1)	1	0.14	1.71
HABP2 (hyaluronan binding protein 2)	1	0.76	0.34
MAPK1IP1L	1	0.84	0.94
HEMGN (hemogen)	1	0.52	1.39
TXNIP (thioredoxin interacting protein)	1	0.31	1.04
PPIA (peptidylprolyl isomerase A)	1	0.63 (active)	0.32
TAF1D	1	0.79	0.69
ZNF137P (zinc finger protein 137, pseudogene)	1	0.9	0.82
LITAF (lipopolysaccharide induced TNF factor)	1	0.84	0.77
H2AC4 (H2A clustered histone 4)	1	0.58	0.66
SERHL (serine hydrolase like (pseudogene))	1	0.76	0.45
CHCHD5 (coiled-coil-helix-coiled-coil-helix domain containing 5)	1	0.75	0.24
VPS45 (vacuolar protein sorting 45 homolog)	1	0.02 (active)	0.44
RRM2 (ribonucleotide reductase regulatory subunit M2)	1	0	2.41
RRM2 (ribonucleotide reductase regulatory subunit M2)	2	0.42	0.9
MPPED2 (metallophosphoesterase domain containing 2)	1	0.28	1.3
TRIM47 (tripartite motif containing 47)	1	0.28	2.1
DMAC2L (distal membrane arm assembly component 2 like)	1	0.56	1.33
SGPP2 (sphingosine-1-phosphate phosphatase 2)	1	0.98	0.93
EXOSC7 (exosome component 7)	1	0.84	0.95
RCSD1 (RCSD domain containing 1)	1	0.99	1.02
ERICH5 (glutamate rich 5)	1	0.6	1
EMC6 (ER membrane protein complex subunit 6)	1	0.44	1.33
PLAGL2 (PLAG1 like zinc finger 2)	1	0.42	1.9
DENND1C (DENN domain containing 1C)	1	0.61	1.7
ALAD (aminolevulinate dehydratase)	1	0.73	0.74
PPP1R3B (protein phosphatase 1 regulatory subunit 3B)	1	0.07 (active)	0.6
METTL2B (methyltransferase 2B, tRNA N3-cytidine)	1	0.72	0.86
SPOCD1 (SPOC domain containing 1)	1	0.44	1.16
SIRT7 (sirtuin 7)	1	1.24	0.73
TSPAN33 (tetraspanin 33)	1	0.78	0.93
PRKCQ (protein kinase C theta)	1	0.7	0.76
OR51B5 (olfactory receptor family 51 subfamily B member 5)	1	0	0.82
KCTD1 (potassium channel tetramerization domain containing 1)	1	0.24	1.29
RAB3IL1 (RAB3A interacting protein like 1)	1	0.79	0.79
TBC1D28 (TBC1 domain family member 28)	1	0.13	0.88

Active calls, of those listed so far:
gene symbol	pool no.	cell gain with vemurafenib	lactate per cell with vemurafenib
LGALS9C (galectin 9C)	1	0.59 (active)	0.38
PCNP (PEST proteolytic signal containing nuclear protein)	1	0.65 (active)	0.4
STX1B (syntaxin 1B)	1	0.69 (active)	0.47
PPIA (peptidylprolyl isomerase A)	1	0.63 (active)	0.32
VPS45 (vacuolar protein sorting 45 homolog)	1	0.02 (active)	0.44
PPP1R3B (protein phosphatase 1 regulatory subunit 3B)	1	0.07 (active)	0.6
